These results are taken from paper PMC8880039, “Kinetic and Molecular Docking Studies to Determine the Effect of Inhibitors on the Activity and Structure of Fused G6PD::6PGL Protein from Trichomonas vaginalis” (Molecules, 2022).

Data set [1] relates to fused TvG6PD::6PGL protein. The data set is described as follows: Extrinsic fluorescence (ANS) assay. Also on record: species or system Trichomonas vaginalis. The conditions noted are these: for extrinsic (ANS) fluorescence intensity fold change: versus TvG6PD::6PGL protein without any compound; for maximum extrinsic (ANS) fluorescence intensity: 0.1 mg/mL protein, compound at IC50, 2 h at 37 °C, enzyme without inhibitor about 509 a.u.

For data set [2], the system named is fused TvG6PD::6PGL protein. The data set is described as follows: Intrinsic fluorescence assay. Details: species or system Trichomonas vaginalis. The conditions noted are these: for maximum intrinsic fluorescence intensity: protein without inhibitors 984 a.u.; for fold loss of intrinsic fluorescence intensity: versus protein in the absence of inhibitors (984 a.u.).

Where [3] appears, read: 0.1 mg/mL protein, compound at IC50, 2 h at 37 °C.

Each structure is given as a SMILES string.

As for `O=C(Nc1ccc(Cl)cc1)Nc1ncc([N+](=O)[O-])s1` [CNZ-3], the “extrinsic (ANS) fluorescence intensity fold change” value in data set [1] came out at 1.3 fold. Besides, the “maximum intrinsic fluorescence intensity” value in data set [2] (setting [3]) turned out to be 382 a.u. Moreover, the “fold loss of intrinsic fluorescence intensity” value (“fold loss” for short) in data set [2] amounted to 2.5 fold.
In the case of `COc1ccc(NC(=O)Nc2ncc([N+](=O)[O-])s2)cc1` [CNZ-17], in data set [1], the “maximum extrinsic (ANS) fluorescence intensity” value (from here on “maximum extrinsic”) is 90 a.u and the “extrinsic (ANS) fluorescence intensity fold change” value is −5.6 fold. For the same compound, the “maximum intrinsic fluorescence intensity” value in data set [2] (setting [3]) is recorded as 148 a.u. Further, the “fold loss” value in data set [2] turned out to be 6 fold.
Consider `COc1cc(CCC(=O)O)ccc1OCc1ccc(-c2ccccc2C#N)cc1` [JMM-3], for which, in data set [1], the “maximum extrinsic” value came to 162 a.u and the “extrinsic (ANS) fluorescence intensity fold change” value was −3.1 fold. In addition, in data set [2] (setting [3]), the “redshift of intrinsic fluorescence emission” value was found to be 8 nm.
Regarding `O=C(COc1ccc(/C=C2\SC(=O)NC2=O)cc1)NC1CCN(Cc2ccccc2)CC1` [MCC-7], in data set [1], the “maximum extrinsic” value is given as 60 a.u and the “extrinsic (ANS) fluorescence intensity fold change” value is −8.4 fold. In addition, the “maximum intrinsic fluorescence intensity” value in data set [2] (setting [3]) is recorded as 18 a.u. For the same compound, in data set [2], the “fold loss” value is 55 fold.
